Measurements from PMC13343191.

The chains behind the UniProt entries cited, without tags or fusion partners. Residues count along the entry.
UniProt Q15365, whole entry: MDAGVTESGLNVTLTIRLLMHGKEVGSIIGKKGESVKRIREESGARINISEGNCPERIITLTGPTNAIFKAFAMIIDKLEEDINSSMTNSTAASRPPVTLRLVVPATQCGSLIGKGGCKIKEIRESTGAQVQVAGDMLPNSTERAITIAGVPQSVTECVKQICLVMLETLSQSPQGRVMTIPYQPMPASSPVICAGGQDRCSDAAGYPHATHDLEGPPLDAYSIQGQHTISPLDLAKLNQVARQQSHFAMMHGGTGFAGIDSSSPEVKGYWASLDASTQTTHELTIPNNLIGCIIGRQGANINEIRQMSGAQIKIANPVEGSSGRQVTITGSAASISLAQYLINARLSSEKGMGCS
UniProt P02769, 25-607: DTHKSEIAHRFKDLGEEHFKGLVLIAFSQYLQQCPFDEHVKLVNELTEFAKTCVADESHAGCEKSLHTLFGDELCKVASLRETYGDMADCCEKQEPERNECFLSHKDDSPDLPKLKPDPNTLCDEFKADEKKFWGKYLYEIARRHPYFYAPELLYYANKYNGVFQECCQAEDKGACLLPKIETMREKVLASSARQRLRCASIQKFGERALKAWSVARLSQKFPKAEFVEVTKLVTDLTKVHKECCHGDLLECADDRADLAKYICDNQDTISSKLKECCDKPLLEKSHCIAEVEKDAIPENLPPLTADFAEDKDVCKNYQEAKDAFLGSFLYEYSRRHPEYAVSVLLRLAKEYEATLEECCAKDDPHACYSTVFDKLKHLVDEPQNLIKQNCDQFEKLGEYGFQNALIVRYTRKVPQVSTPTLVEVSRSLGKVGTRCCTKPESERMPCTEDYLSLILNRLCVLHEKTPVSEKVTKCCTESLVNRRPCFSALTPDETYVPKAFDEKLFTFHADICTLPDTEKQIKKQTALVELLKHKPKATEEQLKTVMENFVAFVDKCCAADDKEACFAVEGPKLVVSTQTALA
UniProt P27695, 34-318, stated change not applied: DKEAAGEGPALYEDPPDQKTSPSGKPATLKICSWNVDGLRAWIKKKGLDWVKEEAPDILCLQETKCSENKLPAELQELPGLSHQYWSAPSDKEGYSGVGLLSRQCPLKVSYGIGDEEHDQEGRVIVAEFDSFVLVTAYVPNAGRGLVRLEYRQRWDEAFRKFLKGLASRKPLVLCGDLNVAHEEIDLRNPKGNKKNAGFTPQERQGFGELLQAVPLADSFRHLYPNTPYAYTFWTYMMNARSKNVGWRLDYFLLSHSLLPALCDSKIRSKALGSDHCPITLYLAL

How the values were obtained:
PCBP1 (hnRNP E1) = PCBP1 (hnRNP E1) (UniProt Q15365); assay: southwestern blot; settings: abstract: higher iM affinity than APE1; switchSENSE: MES pH 5.5 (APE1) or 6.5 (iMab); SMADNE: 25 mM MES pH 5.5, 150 mM NaCl, 0.1 mg/ml BSA, 1 mM DTT, 1 mM Trolox; recombinant protein; residues 1-356; label: 5' IRDye800 (SWB, UV-crosslinking); folded or branched DNA
BSA = BSA (UniProt P02769); assay: southwestern blot; settings: switchSENSE: MES pH 5.5 (APE1) or 6.5 (iMab); SMADNE: 25 mM MES pH 5.5, 150 mM NaCl, 0.1 mg/ml BSA, 1 mM DTT, 1 mM Trolox; commercial protein; label: 5' IRDye800 (SWB, UV-crosslinking); folded or branched DNA
APE1 NΔ33 del1-33 = APE1 NΔ33 del1-33 (UniProt P27695); assay: UV-crosslinking; settings: weak bands, may reflect lysine loss; UV-crosslinking: 50 mM Tris-acetate pH 5.5, 50 mM KCl, 1 mM DTT, 0.8% glycerol, 0.4 mM EDTA, 4°C; recombinant protein; residues 34-318; label: 5' IRDye800 (SWB, UV-crosslinking); folded or branched DNA
APE1 WT = APE1 WT (UniProt P27695); assay: UV-crosslinking; settings: pH 5.5, 0.4 mM EDTA, UV-crosslinking: 50 mM Tris-acetate pH 5.5, 50 mM KCl, 1 mM DTT, 0.8% glycerol, 4°C, recombinant protein, label: 5' IRDye800 (SWB, UV-crosslinking), folded or branched DNA

## TAACCCTAACCCTAACCCTAACCCTAA [C-NAT]
PCBP1 (hnRNP E1)
  binding result: binds
BSA
  binding result: no binding
APE1 NΔ33 del1-33
  binding result: binds more weakly
APE1 WT
  binding result: binds

For some of these results: No signal at the amounts used counts as a negative. For some of these results: The exact form of at least one protein or probe is not confirmed. For some of these results: The comparison behind a weaker result is the experiment's own reference, which may not be listed here. For some of these results: At least one verdict was read from the data and is not stated in words by the source.
